Results as given in publication PMC12242767.
These are yes or no findings as the source states them, for the method shown. In cells and extracts the contact can be indirect.

Biological target: T1, Aco1 (S. cerevisiae) (UniProt P19414)
T1 sequence: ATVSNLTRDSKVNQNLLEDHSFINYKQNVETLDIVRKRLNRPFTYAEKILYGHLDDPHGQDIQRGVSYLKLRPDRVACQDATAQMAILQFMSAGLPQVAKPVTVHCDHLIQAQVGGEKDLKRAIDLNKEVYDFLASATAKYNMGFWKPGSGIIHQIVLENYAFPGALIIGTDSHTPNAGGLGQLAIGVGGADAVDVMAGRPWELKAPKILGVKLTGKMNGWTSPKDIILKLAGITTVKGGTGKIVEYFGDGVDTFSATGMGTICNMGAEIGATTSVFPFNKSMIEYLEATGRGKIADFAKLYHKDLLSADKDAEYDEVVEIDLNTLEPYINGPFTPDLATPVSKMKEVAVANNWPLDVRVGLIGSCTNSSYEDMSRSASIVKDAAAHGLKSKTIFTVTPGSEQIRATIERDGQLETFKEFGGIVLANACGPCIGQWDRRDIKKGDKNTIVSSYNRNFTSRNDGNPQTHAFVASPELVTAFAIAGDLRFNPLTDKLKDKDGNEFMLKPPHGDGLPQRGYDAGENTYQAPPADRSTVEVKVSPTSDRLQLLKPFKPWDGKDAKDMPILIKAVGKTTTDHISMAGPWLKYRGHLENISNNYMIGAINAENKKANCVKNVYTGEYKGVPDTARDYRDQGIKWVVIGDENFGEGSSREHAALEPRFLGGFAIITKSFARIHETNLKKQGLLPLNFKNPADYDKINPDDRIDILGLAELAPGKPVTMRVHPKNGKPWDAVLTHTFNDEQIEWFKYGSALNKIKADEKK
Test: co-sedimentation; linear sucrose gradient (0.3–1 M) of mitochondrial lysate in 1% DDM, 10 mM Tris–HCl pH 7.4, 10 mM KOAc, 0.5 mM Mg(OAc)2, 10 mM EDTA; 164 000 x g 1 h 4°C; fractions blotted; WT and cbp3Δ, cbp1Δ, mrx4Δ strains

- binding: no binding
B1: Mrx4 (protein, UniProt Q12467 28-430)
chain: VSHARSGGAKFGGRNVFNIFDSKTPDSVRIKAFKNTIYQSAMGKGKTKFSAMEINLITSLVRGYKGEGKKNAINPLQTNVQILNKLLLTHRLTDKDILEGMNLAAGPVNVAIPRDITPQEEKKKVELRNRKAENMDLHPSRKMHIKELLHSLNLDMCNDEEVYQKISLYLQKNEESRTSVGASQQNHVDIDINSLKRYLQNIEKKARQKSAIDKQKKNQARIYQWNTQSFSEIVPLSAGNILFKREPNRLWKRLQNGISVFLGSNGGGKKSKTTKKVLQGNNILLHSLENNKDMTLSNNFDHSVFNINFTDLFGVINASGSPPDRVLNEINEIELKGWKCVGNLYDNNKIVVFQSSNPLLEDTKIPQKSFTNSKRFLISLSALLASFFAYYRYRLSQRQESKK
